Screen size: about 300,000 compounds; about 3,700 (1.2%) were called active. The inconclusive results got no clear call from the source; some entries with a clear call stand among them for comparison. The call rests on the fitted dose curve; tested in HEK293 cells. Potencies beside an inconclusive call are fits to weak or partial responses and may not hold up.
Test: qHTS for Inhibitors of binding or entry into cells for Lassa Virus; further: nearly all actives have a fitted effect of over 50% in size
Conditions: Lassa virus pseudotype entry inhibition, cell reporter; activity change, negative = inhibition: at 37.9 µM (top of the series) unless noted
In the case of `COc1ccc(-n2ncc(C(C)NS(=O)(=O)c3cccs3)c2C)cc1` (stereo not given), the Potency is reported as inconclusive: 1.12 µM [inhibitor, full curve, poor fit]. With `CCN(CC)CCn1c(=N)n(CC(=O)c2ccc(Br)s2)c2ccccc21` the Potency was inconclusive: 35.5 µM [inhibitor, single point]. With `CCc1ccc2oc(-c3ccc(C)c(NC(=O)Cc4ccccc4)c3)nc2c1` the Potency was inconclusive: 35.5 µM [activator, single point]. For `O=C(Nc1ncccc1O)c1ccc2ccccc2c1`, the Potency was inconclusive: 4.47 µM [inhibitor, single point]. With `N#Cc1c(N2CCN(C(=O)c3ccco3)CC2)nc(-c2ccccc2)c2c1CCCC2` the Potency was inconclusive: 18.3 µM [inhibitor, single point]. In the case of `CCOC(=O)c1c(NC(=O)COc2ccccc2OCC)sc2c1CC(C)(C)NC2(C)C`, the Potency is reported as inconclusive: 35.5 µM [inhibitor, single point]. With `O=C(Cn1c(=O)c(CNc2ccccc2)cc2cc3c(cc21)OCCO3)Nc1ccccc1Cl` the Potency was inconclusive: 3.55 µM [activator, partial curve, poor fit]. With `CCOc1cc2c(cc1OCC)-n1cccc1C(c1ccc(OC)cc1)NC2` (stereo not given) the Potency was inconclusive: 5.62 µM [inhibitor, partial curve]. With `O=C(Nc1ccc(F)cc1F)c1ccc(-n2cncn2)nc1` the Potency was “inactive”. For `COc1cc(SC)ccc1C(=O)OC(C)C(=O)Nc1ccc(NC(C)=O)cc1` (stereo not given), the Potency was inconclusive: 10 µM [inhibitor, partial curve, poor fit]. In the case of `Cc1cc(C)cc(N2CCn3c2nc2c3c(=O)n(Cc3c(F)cccc3Cl)c(=O)n2C)c1`, the Potency is reported as “inactive”. With `Cc1ccc(N2C(=O)N(CC(=O)N3c4ccccc4CC3C)C(=O)C2C)cc1` (stereo not given) the Potency was inconclusive: 2.82 µM [activator, partial curve, poor fit]. For `O=S(=O)(NCC(c1ccco1)N1CCN(c2ccccc2)CC1)c1cc(F)ccc1F` (stereo not given), the Potency was inconclusive: 8.91 µM [inhibitor, full curve, poor fit]. With `CCN(CC)S(=O)(=O)c1cccc(NC(=O)c2ccc(C#N)cc2)c1` the Potency was inconclusive: 12.6 µM [inhibitor, partial curve, poor fit]. For `Cc1ccc(CSCCNS(=O)(=O)c2ccc([N+](=O)[O-])cc2)cc1`, the Potency was inconclusive: 0.316 µM [activator, full curve, poor fit]. For `Cn1c(=O)oc2ccc(C(=O)CSc3nnnn3-c3ccccc3)cc21`, the Potency was inconclusive: 5.17 µM [activator, full curve, poor fit]. For `CCCCc1nc2ccccc2c(N)c1CCC` (tested in a mixture with another compound), the Potency was inconclusive: 10 µM [inhibitor, partial curve, poor fit]. With `COc1ccc(CNC(=O)CN(Cc2ccc(C)cc2)C(=O)c2csnn2)cc1` the Potency was inconclusive: 10 µM [inhibitor, partial curve, poor fit]. In the case of `CCCCNc1oc(-c2ccc(OC)cc2)nc1S(=O)(=O)c1ccccc1`, the Potency is reported as inconclusive: 16.4 µM [inhibitor, partial curve]. For `CCc1ccc(/C=C(/C#N)c2nc(-c3ccc(C)cc3)cs2)cc1`, the Potency was “inactive”. For `O=C(/C=C/c1ccccc1)NCCc1ccc2c(c1)OCCO2`, the Potency was inconclusive: 35.5 µM [inhibitor, single point]. With `CCOc1ccc(N(CC(=O)NCc2ccccc2OC)S(C)(=O)=O)cc1` the Potency was inconclusive: 8.2 µM [activator, partial curve]. For `O=C(C1CC1)N1CCc2cc(Br)cc(S(=O)(=O)Nc3ccc(F)c(F)c3)c21`, the Potency was inconclusive: 35.5 µM [inhibitor, single point]. For `O=c1cc(O)c2c(=O)n(Cc3ccccc3)c3ccccc3c2o1`, the Potency was inconclusive: 10 µM [inhibitor, partial curve, poor fit]. In the case of `O=C(CN1C(=O)NC2(CCCC2)C1=O)Nc1ccc(C(F)(F)F)cc1`, the Potency is reported as inconclusive: 10 µM [inhibitor, partial curve]. In the case of `N/C(=N\OS(=O)(=O)c1ccccc1)c1ccncc1`, the Potency is reported as “inactive”. For `Cc1ccc(NS(=O)(=O)c2ccc(C(=O)N3CCN(S(=O)(=O)c4ccccc4)CC3)cc2)cc1`, the Potency was inconclusive: 35.5 µM [inhibitor, single point]. In the case of `N#Cc1ccc(NC(=O)COCc2cc(-c3ccco3)on2)cc1`, the Potency is reported as “inactive”. In the case of `Cc1cc(C)cc(C(=O)NCCc2sc(-c3ccc(F)cc3)nc2C)c1`, the Potency is reported as “inactive”. In the case of `Cc1ccc(Nc2nc(-c3ccc(O)cc3O)cs2)nc1`, the Potency is reported as inconclusive: 6.31 µM [inhibitor, full curve, poor fit]. In the case of `O=C(NCc1cccs1)c1ccc(N2CCCC2=O)cc1`, the Potency is reported as “inactive”. For `Cc1cccc(NC(=O)CSc2nc3n[nH]c(C)c3c(=N)n2-c2cccc(Cl)c2)c1`, the Potency was inconclusive: 1.12 µM [inhibitor, single point]. For `CCCOc1ccc(C(=O)NCC2OCCc3ccccc32)cc1OC` (stereo not given), the Potency was inconclusive: 0.891 µM [inhibitor, full curve, poor fit]. With `Cc1ccccc1NS(=O)(=O)c1ccc(N2CCCC2=O)cc1` the Potency was inconclusive: 6.51 µM [inhibitor, single point]. For `CN(C)S(=O)(=O)c1cccc(NC(=O)c2ccc(S(=O)(=O)N3CCCCC3)cc2)c1`, the Potency was “inactive”. With `Cc1ccc(Sc2ncccc2COC(=O)Nc2c(C)cccc2C)cc1` the Potency was active: 2.82 µM. In the case of `COCCCNCCOCCOc1ccc(Cl)cc1Br`, the Potency is reported as inconclusive: 16.4 µM [inhibitor, partial curve]. With `CCOc1ccc(NC(=O)c2cnccn2)cc1` the Potency was inconclusive: 12.6 µM [inhibitor, single point]. For `CCn1c2ccccc2c2cc(NC(=O)COC(=O)c3ccccc3O)ccc21`, the Potency was inconclusive: 7.08 µM [inhibitor, partial curve]. With `CNc1nc(C)cc(C)c1S(=O)(=O)c1ccc(C)cc1` the Potency was “inactive”. With `Cc1sc2ncnc(N3CCC(C(=O)NNC(=O)COc4ccc(Br)cc4)CC3)c2c1C` the Potency was “inactive”. With `CCc1ccc(-c2nc(SCC(=O)NC3CCCC3)n[nH]2)cc1` the Potency was inconclusive: 8.91 µM [inhibitor, partial curve, poor fit]. With `Cc1cc(NS(=O)(=O)c2ccc(NC(=O)c3ccc(Cl)cc3Cl)cc2)no1` the Potency was inconclusive: 1.26 µM [activator, single point]. For `Cn1c(=O)c2c(nc(CN3CCN(c4ccccc4F)CC3)n2Cc2ccc(F)cc2)n(C)c1=O`, the Potency was inconclusive: 11.2 µM [inhibitor, single point]. With `CCN(CC)/C(=N\S(=O)(=O)c1ccc(F)cc1)c1ccccc1` the Potency was inconclusive: 35.5 µM [inhibitor, single point]. For `CN1CCC(n2cnc(-c3ccc(F)cc3)c2-c2ccnc(NCCO)n2)CC1`, the Potency was inconclusive: 0.445 µM [inhibitor, full curve, poor fit]. With `CCN(CC)c1ccc(C(=O)OCC(=O)Nc2cc3oc4ccccc4c3cc2OC)cc1` the activity change, negative = inhibition was inconclusive: 0.806% [activator]. In the case of `O=[N+]([O-])c1ccc(COc2ccccc2/C=N/O)cc1`, the Potency is reported as “inactive”. In the case of `COc1cc(N)c(Cc2nccc3cc(OC)c(OC)cc23)cc1OC`, the Potency is reported as inconclusive: 10 µM [inhibitor, partial curve, poor fit]. In the case of `CC(C(=O)Nc1cc([N+](=O)[O-])ccc1Cl)N1CCN(c2ccccc2O)CC1` (stereo not given), the Potency is reported as inconclusive: 20 µM [inhibitor, single point]. In the case of `CCC(C)c1ccc(NC(=O)C2CCN(c3ccc(C(F)(F)F)cn3)CC2)cc1` (stereo not given), the Potency is reported as “inactive”. In the case of `COc1cc(/C=C/C(=O)OCC(=O)NC(=O)NC23CC4CC(CC(C4)C2)C3)ccc1OCC#N`, the Potency is reported as inconclusive: 0.199 µM [inhibitor, full curve, poor fit]. For `O=C(COc1ccccc1-c1ccccc1)N/N=C/c1ccc2ccccc2c1`, the Potency was active: 1.78 µM. In the case of `CC(NC(=O)Nc1ccc(F)cc1)C(c1cccs1)N1CCCC1` (stereo not given), the Potency is reported as “inactive”. With `CCN(CC)C(=O)CN(c1cc2c(cc1OC)oc1ccccc12)S(=O)(=O)c1ccccc1` the Potency was inconclusive: 7.94 µM [inhibitor, partial curve, poor fit]. For `CCOC(=O)c1c(C)[nH]c(C(=O)C(Cc2ccccc2)N(C)C)c1C` (stereo not given), the Potency was “inactive”. For `CCN1CC(CN(C)Cc2cn(-c3ccc(C)cc3)nc2-c2ccc(F)cc2)CC1=O` (stereo not given), the Potency was inconclusive: 0.794 µM [inhibitor, single point]. In the case of `O=C(COc1ccccc1C(=O)NCC1CCCO1)Nc1ccc(Br)cc1` (stereo not given), the Potency is reported as inconclusive: 20 µM [inhibitor, single point]. With `CC(C)(C)c1cc(C(=O)NCc2cc(F)cc3c2OCOC3)n(Cc2ccccc2)n1` the Potency was inconclusive: 4.47 µM [activator, full curve, poor fit]. In the case of `COc1ccccc1NC(=O)C1CCCN(S(=O)(=O)c2c(C)noc2C)C1` (stereo not given), the Potency is reported as inconclusive: 3.16 µM [inhibitor, single point]. With `O=C(OCc1nc2ccc(Cl)cc2n1CCO)c1ccccc1C(=O)c1ccccc1` the Potency was inconclusive: 6.31 µM [inhibitor, single point]. For `O=C(Nc1ccc(N2CCN(C(=O)c3ccccc3)CC2)cc1)c1cccs1`, the Potency was inconclusive: 35.5 µM [inhibitor, single point]. With `CC(C)NC(=O)c1ccc2c(c1)nc1n2CCCCC1` the Potency was inconclusive: 17.8 µM [activator, partial curve, poor fit]. For `CCOC(=O)COc1ccc(C)cc1C(=O)c1ccn2nc(-c3ccc(Cl)cc3)cc2n1`, the Potency was “inactive”. For `COc1ccc(C(C(=O)NC(C)(C)C)N(C(=O)CNC(=O)c2cccs2)c2ccc(C(C)C)cc2)cc1OC` (stereo not given), the Potency was “inactive”.

Source: PubChem BioAssay AID540256 (National Center for Advancing Translational Sciences (NCATS), 2011)
On the % scale 0 is the no-effect control and ±100 the full control effect; potency means the concentration at half of the fitted maximal effect.
